Results on three substances are retold here after patent US6075006A (Centro Interuniversitario di Ricera Sui Peptidi …, priority 1996, dated 2000).

The nature of series [1]: general procedure: Boc solid-phase peptide synthesis; PAM resin functionalized with Boc-Leu; Macrosorb SPR resin with p-hydroxymethylbenzoic acid linker (Comparative Example); PyBop/DIEA (cyclisation); HOBT/DCC (Comparative Example 2). Conditions: analytical HPLC.
The nature of series [2]: solid-phase peptide synthesis. Particulars: cyclisation step, analytical HPLC.

HELM strings list residues between dots; [ac] is acetyl, [am] amide, other brackets name non-standard units.

In the case of “PEPTIDE1{[CysG].[Dx].W.F.[Dapx].L}|CHEM1{[Gal]}$PEPTIDE1,PEPTIDE1,6:R2-1:R1|PEPTIDE1,PEPTIDE1,2:R3-5:R3|PEPTIDE1,CHEM1,1:R3-1:R1$$$V2.0”, in series [1] (late stage modification step), the “crude HPLC purity” value is given as “area>80%” and the “final HPLC purity” value was “purity>94%”.
As to “PEPTIDE1{[AsnG].[Dx].W.F.[Dapx].L}|CHEM1{[Gal]}$PEPTIDE1,PEPTIDE1,6:R2-1:R1|PEPTIDE1,PEPTIDE1,2:R3-5:R3|PEPTIDE1,CHEM1,1:R3-1:R1$$$V2.0”, the “crude HPLC purity” value in series [2] is on record as “purity>80%”. Also, the “final HPLC purity” value in series [1] (cyclisation step) is “purity>94%”.
Take “PEPTIDE1{[SerG].[Dx].W.F.[Dapx].L}|CHEM1{[Gal]}$PEPTIDE1,PEPTIDE1,6:R2-1:R1|PEPTIDE1,PEPTIDE1,2:R3-5:R3|PEPTIDE1,CHEM1,1:R3-1:R1$$$V2.0”: in series [1] (whole synthesis), the “crude HPLC purity” value was “purity>85%” and the “final HPLC purity” value is listed as “purity>94%”.
